Source: patent US3974184A, “Microbial production of certain isoflavones” (Zaidan Hojin Biseibutsu Kagaku Kenkyu Kai, priority 1973, dated 1976)
Like-named read-outs stand apart in the source and are kept apart here. The name of at least one read-out is uncertain.

Target: T1, catechol-O-methyl transferase (COMT) (Rattus norvegicus, UniProt P22734)
T1 sequence (P22734 1-221 isoform P22734-2): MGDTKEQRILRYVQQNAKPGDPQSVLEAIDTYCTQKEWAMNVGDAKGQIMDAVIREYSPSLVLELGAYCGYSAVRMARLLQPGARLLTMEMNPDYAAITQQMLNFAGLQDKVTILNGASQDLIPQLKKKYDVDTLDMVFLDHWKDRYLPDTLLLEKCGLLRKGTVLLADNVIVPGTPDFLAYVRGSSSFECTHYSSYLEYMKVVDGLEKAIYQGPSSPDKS
Test: Inhibition of catechol-O-methyl transferase (formation of tritium metanephrine)
Assay type: biochemical

For COc1ccc(-c2coc3cc(O)c(OC)c(O)c3c2=O)cc1O [Compound (I), 3',5,7-trihydroxy-4',6-dimethoxy-isoflavone], the IC50 (isolated compounds, read-out: concentration inhibiting the activity of COMT by 50% (converted)) was 1.51 µM and the IC50 (powders from silica gel fractions, Example 1, read-out: concentration showing 50% inhibition against COMT (converted)) was 151 µM.
